# Measurements reported in article doi:10.1101/2021.10.02.462778.
# Sequences of proteins named here, by UniProt entry; tags and fusion partners are left off. A change or cut given only in a name is not applied to a line headed by its entry. Residues count along the entry.
# UniProt P13597, residues 28-485: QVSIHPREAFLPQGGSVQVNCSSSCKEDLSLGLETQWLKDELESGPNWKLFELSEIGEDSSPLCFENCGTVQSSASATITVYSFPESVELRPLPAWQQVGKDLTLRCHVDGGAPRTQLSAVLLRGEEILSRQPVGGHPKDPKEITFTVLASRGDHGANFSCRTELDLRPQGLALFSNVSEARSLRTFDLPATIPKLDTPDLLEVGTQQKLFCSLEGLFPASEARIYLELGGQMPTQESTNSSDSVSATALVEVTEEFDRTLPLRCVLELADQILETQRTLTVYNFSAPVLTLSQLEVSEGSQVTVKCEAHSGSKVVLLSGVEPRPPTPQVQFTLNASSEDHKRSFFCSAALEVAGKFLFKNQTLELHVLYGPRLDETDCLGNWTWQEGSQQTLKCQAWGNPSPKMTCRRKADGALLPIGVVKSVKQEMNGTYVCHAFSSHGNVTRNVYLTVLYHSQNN
# UniProt P24063: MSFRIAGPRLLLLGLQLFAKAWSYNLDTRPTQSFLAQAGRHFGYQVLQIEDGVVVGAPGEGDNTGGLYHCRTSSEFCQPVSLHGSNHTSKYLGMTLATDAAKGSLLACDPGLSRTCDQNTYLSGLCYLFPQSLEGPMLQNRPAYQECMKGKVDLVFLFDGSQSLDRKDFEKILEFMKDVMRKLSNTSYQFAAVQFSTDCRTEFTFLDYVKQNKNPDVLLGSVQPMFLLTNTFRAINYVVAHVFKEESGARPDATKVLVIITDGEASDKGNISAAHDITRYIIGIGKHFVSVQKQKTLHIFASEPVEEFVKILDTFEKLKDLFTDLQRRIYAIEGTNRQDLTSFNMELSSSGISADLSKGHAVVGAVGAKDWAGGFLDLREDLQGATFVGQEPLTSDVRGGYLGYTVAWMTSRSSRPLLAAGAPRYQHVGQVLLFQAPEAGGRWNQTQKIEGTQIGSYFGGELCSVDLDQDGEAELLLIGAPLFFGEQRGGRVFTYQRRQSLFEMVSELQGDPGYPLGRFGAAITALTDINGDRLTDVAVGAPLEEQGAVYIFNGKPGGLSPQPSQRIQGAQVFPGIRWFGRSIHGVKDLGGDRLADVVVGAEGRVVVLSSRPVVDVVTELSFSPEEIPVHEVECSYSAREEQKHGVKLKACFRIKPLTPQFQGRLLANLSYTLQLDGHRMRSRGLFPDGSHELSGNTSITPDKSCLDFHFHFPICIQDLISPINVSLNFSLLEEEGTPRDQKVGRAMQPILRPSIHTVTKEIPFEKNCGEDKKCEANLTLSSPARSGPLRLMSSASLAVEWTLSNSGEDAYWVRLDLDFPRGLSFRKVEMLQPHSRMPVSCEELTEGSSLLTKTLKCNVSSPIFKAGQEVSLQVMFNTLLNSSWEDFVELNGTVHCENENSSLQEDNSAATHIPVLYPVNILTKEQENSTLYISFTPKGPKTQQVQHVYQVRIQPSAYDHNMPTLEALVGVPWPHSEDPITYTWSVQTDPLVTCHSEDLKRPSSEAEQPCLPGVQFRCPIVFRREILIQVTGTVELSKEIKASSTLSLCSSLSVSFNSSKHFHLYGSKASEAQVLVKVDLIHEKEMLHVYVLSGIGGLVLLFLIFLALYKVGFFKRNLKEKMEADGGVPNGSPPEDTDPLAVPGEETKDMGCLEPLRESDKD
# These are yes or no findings as the source states them, for the method shown. For part of these data: In cells and extracts the contact can be indirect. Some binding calls cover weakened binding; strength is not graded here.
# Key:
# [1] = target: extracellular domain of mouse ICAM-1 (a.a. 28-485, polyhistidine-tagged), biotinylated (mouse) (UniProt P13597); experiment: confocal imaging of CTLs with fluorescent receptor on micropatterned ligand
# dimeric Fc-ICAM1 = dimeric Fc-ICAM1 (UniProt P13597); experiment: FRET-based molecular tension probes
# [2] = target: extracellular domain of mouse ICAM-1 (a.a. 28-485, polyhistidine-tagged), biotinylated (mouse) (UniProt P13597); experiment: FRET-based molecular tension probes
binding [1],binding (dimeric Fc-ICAM1),binding [2],Substance
binds,,,LFA-1 with a fluorescent form of the LFA-1 α-chain (CD11a-YFP) (from UniProt P24063 24-1162; P11835 24-771) (receptor)
,binds,binds,αLβ2 integrin LFA-1 (Lymphocyte function-associated antigen-1) (from UniProt P24063 24-1162; P11835 24-771) (receptor)
